Consider 2 molecules from article PMC5113954, “Characterization of the Sucrose Phosphate Phosphatase (SPP) Isoforms from Arabidopsis thaliana and Role of the S6PPc Domain in Dimerization” (PLoS ONE, 2016).

By UniProt entry, the sequences of proteins in these tests, tags left out.
UniProt Q9SJ66: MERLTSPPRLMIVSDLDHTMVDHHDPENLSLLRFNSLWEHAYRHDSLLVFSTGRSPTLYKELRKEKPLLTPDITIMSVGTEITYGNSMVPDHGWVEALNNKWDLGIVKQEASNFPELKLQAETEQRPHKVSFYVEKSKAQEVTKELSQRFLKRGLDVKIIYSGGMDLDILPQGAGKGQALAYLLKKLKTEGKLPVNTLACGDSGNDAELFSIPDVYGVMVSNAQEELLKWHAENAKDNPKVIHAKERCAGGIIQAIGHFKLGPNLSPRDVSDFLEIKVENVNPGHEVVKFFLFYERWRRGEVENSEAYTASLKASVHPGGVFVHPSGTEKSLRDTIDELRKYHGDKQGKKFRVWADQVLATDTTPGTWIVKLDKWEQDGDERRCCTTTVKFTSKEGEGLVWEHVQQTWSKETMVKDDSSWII

The target in experiment [1] is Arabidopsis SPP2 fused to the N-terminal or the C-terminal part of YFP (YFN-SPP2 and YFC-SPP2) for BiFC (Arabidopsis thaliana) (UniProt Q9SJ66). In words: split reporter; BiFC with YFN and YFC fusions (pYFN43, pYFC43) in agroinfiltrated Nicotiana benthamiana leaf cells; confocal microscopy, excitation 514 nm.
Experiment [2] deals with Sucrose-phosphate phosphatase of Synechocystis sp. PCC 6803, His6-SynSPP (pQE-80L) (Synechocystis sp. PCC 6803) (UniProt P74325). Briefly: SEC; gel filtration of the purified His-tagged proteins; eluted fractions immunoblotted with anti-His antibodies (Fig 7, S1 Fig); both purified. For orientation: In gel filtration, larger molecules generally elute earlier.

Results are given in words; binding and its absence hold for the method and conditions named. For some assays here: Binding seen in cells or lysates may run through a third protein. Some entries that bind do so weakly or less than the wild type. For some assays here: Where a sequence is shown, tags or fusion partners need not be part of it.

On to “Arabidopsis SPP2 fused to the N-terminal or the C-terminal part of YFP (YFN-SPP2 and YFC-SPP2) for BiFC (from UniProt Q9SJ66 1-422) (enzyme)”, for which the binding entry in experiment [1] is given as “binds”.

B1: Sucrose-phosphate phosphatase of Synechocystis sp. PCC 6803, His6-SynSPP (pQE-80L) (enzyme, UniProt P74325 1-244)
chain: MRQLLLISDLDNTWVGDQQALEHLQEYLGDRRGNFYLAYATGRSYHSARELQKQVGLMEPDYWLTAVGSEIYHPEGLDQHWADYLSEHWQRDILQAIADGFEALKPQSPLEQNPWKISYHLDPQACPTVIDQLTEMLKETGIPVQVIFSSGKDVDLLPQRSNKGNATQYLQQHLAMEPSQTLVCGDSGNDIGLFETSARGVIVRNAQPELLHWYDQWGDSRHYRAQSSHAGAILEAIAHFDFLS
Turning to B1, the binding result in experiment [2] was “no binding”.
